mCherry and percent effect data for 35 compounds are collected here from the supplement of paper PMC8256030.

In test [1] the test system is SARS-CoV-2 -1 PRF reporter mCherry-FSE-GFP(-1). The test can be described thus: mCherry (red) intensity as percent of control; higher = higher upstream reporter expression. The settings on record: 10 µM; 24 h; HEK293T.
The test system is the same in test [2]. The test is described as follows: percent effect, decrease of GFP/mCherry ratio (-1 PRF reporter) relative to controls; higher = stronger frameshift inhibition. The note with it: 10 µM; 24 h; HEK293T.

Several values for one entry are separate records, joined by “and”; a condition that tells them apart may be missing. Equal values may be shown once. Where a name gives a salt, the structure may show the parent alone. This is one part of the list. This data set is noisy: repeats of one test often differ as much as different tests do.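 HEK293T cells were given each compound shortly before transfection with a reporter in which red mCherry is followed by the SARS-CoV-2 frameshift element and then GFP in the −1 frame, so GFP appears only after frameshifting.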

The compound `O=C1c2ccccc2CN2C(=O)c3ccccc3CN12` [diftalone] came in with a mCherry in test [1] of 100%. Moreover, the percent effect in test [2] is -1.38%.

Turning to `CO/N=C(\C(=O)N[C@@H]1C(=O)N2C(C(=O)O)=C(C[N+]3(C)CCCC3)CS[C@H]12)c1csc(N)n1` [Maxipeme], the mCherry in test [1] stood at 92.7%. For the same compound, in test [2], the percent effect is -3.73%.

In the case of `C[C@@H](C(=O)O)c1ccc(-c2ccccc2)c(F)c1` [tarenflurbil], the mCherry in test [1] was found to be 70.3%. In test [2], the percent effect is -0.997%.

Turning to `CCN(CC)CCOc1ccc(C(=C(Cl)c2ccccc2)c2ccccc2)cc1` [clomifene], the mCherry in test [1] is 97.1% and 91.8% and 82.5%. Moreover, in test [2], the percent effect was -2.6% and -9.26% and -0.594%.

With `CC1(C)S[C@@H]2[C@H](NC(=O)COc3ccccc3)C(=O)N2[C@H]1C(=O)O` [phenoxymethylpenicillin], in test [1], the mCherry was 71.3%. Moreover, the percent effect in test [2] was -0.848%.

The compound `CO[C@H]1C[C@H](O[C@H]2[C@H](C)[C@@H](O[C@@H]3O[C@H](C)C[C@H](N(C)C)[C@H]3OC(C)=O)[C@@H](C)C[C@@]3(CO3)C(=O)[C@H](C)[C@@H](OC(C)=O)[C@@H](C)[C@@H](C)OC(=O)[C@@H]2C)O[C@@H](C)[C@@H]1OC(C)=O` [troleandomycin] came in with a mCherry in test [1] of 99.7%. The percent effect in test [2] was 0.066%.

Regarding `C[C@H]1[C@H]2CC[C@H]3[C@@H]4CC=C5C[C@@H](N(C)C)CC[C@]5(C)[C@H]4CC[C@]23CN1C` [conessine], the mCherry in test [1] turned out to be 68.3%. In addition, the percent effect in test [2] is -6.46%.

In test [1], `O=C(NCCS(=O)(=O)O)c1cccs1` [taurosteine] registered a mCherry of 104%. The percent effect in test [2] is -7.93%.

`CN(C)c1cnccn1` gave a mCherry in test [1] of 118%. The percent effect in test [2] is -4.9%.

Turning to `CC[C@]1(O)C[C@H]2CN(CCc3c([nH]c4ccccc34)[C@@](C(=O)OC)(c3cc4c(cc3OC)N(C=O)[C@H]3[C@@](O)(C(=O)OC)[C@H](OC(C)=O)[C@]5(CC)C=CCN6CC[C@]43[C@@H]65)C2)C1` [Vincristine sulfate], the mCherry in test [1] is 56%. The percent effect in test [2] is -5.64%.

`CNC(=O)[C@H](Cc1c[nH]c2ccccc12)NC(=O)[C@@H](CC(=O)NO)CC(C)C` [ilomastat]: the mCherry in test [1] was found to be 64.2%. The percent effect in test [2] was -4.66%.

In the case of `NS(=O)(=O)c1cc2c(cc1Cl)N=CNS2(=O)=O` [chlorothiazide], in test [1], the mCherry was 96%. Also, the percent effect in test [2] is -2.98%.

In test [1], `CCN(CC)c1nc(=NN)nc(N(CC)CC)[nH]1` [meladrazine] registered a mCherry of 92.7%. The percent effect in test [2] was -2.13%.

`CC(C)NC[C@H](O)COc1ccc(O)cc1` [prenalterol] gave a mCherry in test [1] of 83.8%. In test [2], the percent effect is -0.133%.

As for `C[C@H](CCC(=O)O)[C@H]1CC[C@H]2[C@@H]3[C@@H](O)C[C@@H]4C[C@H](O)CC[C@]4(C)[C@H]3CC[C@]12C` [ursodeoxycholic acid], the mCherry in test [1] is 79% and 103%. In addition, the percent effect in test [2] is -3.91% and -7.08%.

Compound `NS(=O)(=O)c1cc2c(cc1Cl)NC(CSCc1ccccc1)NS2(=O)=O` (stereo not given) [hydrobentizide] displayed a mCherry in test [1] of 79.2%. Further, the percent effect in test [2] was determined as 1.06%.

`O=C(O)CC/C=C\CC[C@@H]1[C@@H](N2CCCCC2)[C@@H](O)C[C@@H]1OCc1ccc(-c2ccccc2)cc1` [vapiprost]: in test [1], the mCherry was 90.8%. The percent effect in test [2] was -0.129%.

Compound `OCC(O)COc1ccc(Cl)cc1` (stereo not given) [chlorphenesin] gave a mCherry in test [1] of 106%. In test [2], the percent effect is -4.56%.

On to `CC[C@H]1OC(=O)[C@H](C)C(=O)[C@H](C)[C@@H](O[C@@H]2O[C@H](C)C[C@H](N(C)C)[C@H]2O)[C@](C)(OC)C[C@@H](C)C(=O)[C@H](C)[C@H]2N(CCCCn3cnc(-c4cccnc4)c3)C(=O)O[C@]12C` [Telithromycin], for which the mCherry in test [1] turned out to be 85.8%. In test [2], the percent effect was -6.73%.

For `C=C1c2cccc(O)c2C(O)=C2C(=O)[C@]3(O)C(O)=C(C(N)=O)C(=O)[C@@H](N(C)C)[C@@H]3[C@@H](O)[C@H]12`, in test [1], the mCherry came to 86.6%. In addition, the percent effect in test [2] is -8.67%.

In the case of `CC(=O)SC[C@@H](Cc1ccccc1)C(=O)NCC(=O)OCc1ccccc1` [ecadotril], in test [1], the mCherry worked out at 65.4%. For the same compound, in test [2], the percent effect was -1.68%.

Turning to `O=C(Nc1cccc(C(F)(F)F)c1)c1cc(Br)cc(Br)c1O` [flusalan], in test [1], the mCherry turned out to be 189%. The percent effect in test [2] is -10.6%.

In turn, `NS(=O)(=O)c1cc2c(cc1Cl)NC(CSCC(F)(F)F)NS2(=O)=O` (stereo not given) [epitizide] displayed a mCherry in test [1] of 107%. Also, in test [2], the percent effect is -2.19%.

Consider `CCCCC1C(=O)N(c2ccccc2)N(c2ccc(O)cc2)C1=O` (stereo not given) [oxyphenbutazone], for which, in test [1], the mCherry was determined as 64.6%. Besides, the percent effect in test [2] was -5.93%.

In test [1], `COc1ccc2cc3[n+](cc2c1OC)CCc1cc2c(cc1-3)OCO2` came in with a mCherry of 99%. In test [2], the percent effect is 0.803%.

As to `CC(CNC1CCCCC1)OC(=O)c1ccccc1` (stereo not given) [hexylcaine], in test [1], the mCherry came out at 101%. The percent effect in test [2] is -4.39%.

In test [1], `N=C(N)NS(=O)(=O)c1ccc(N)cc1` [sulfaguanidine] displayed a mCherry of 70.3%. Moreover, in test [2], the percent effect is -10.4%.

Compound `Cc1cccc(C)c1NC(=O)c1cc(S(N)(=O)=O)c(Cl)cc1O` [xipamide] registered a mCherry in test [1] of 108%. Moreover, the percent effect in test [2] was -11.5%.

For the compound `C=CC1=C(C(=O)O)N2C(=O)[C@@H](NC(=O)/C(=N\OCC(=O)O)c3csc(N)n3)[C@H]2SC1` [cefixime], the mCherry in test [1] was 82.6%. In addition, the percent effect in test [2] was 0.442%.

In turn, `CN(C)CC(c1ccc(O)cc1)C1(O)CCCCC1` (stereo not given) returned a mCherry in test [1] of 98%. Also, the percent effect in test [2] turned out to be 1.89%.

For `NC(CO)C(=O)NNCc1ccc(O)c(O)c1O` (stereo not given) [benserazide], in test [1], the mCherry was 82% and 72%. In addition, the percent effect in test [2] is -2.62% and 2.14%.

`CCCCCCCCCCOc1cc2c(O)c(C(=O)OCC)cnc2cc1OCC` [decoquinate] came in with a mCherry in test [1] of 106%. For the same compound, the percent effect in test [2] was -5.57%.

The compound `CN(Cc1ccccc1)Cc1ccccc1` [dibemethine] displayed a mCherry in test [1] of 94.6%. In test [2], the percent effect was -1.91%.

As to `CN(C(=O)CCCOc1ccc2[nH]c(=O)ccc2c1)C1CCCCC1` [cilostamide], the mCherry in test [1] was found to be 103%. Also, the percent effect in test [2] was found to be 3.25%.

For `CNC(=O)CN(CCN(CCN(CC(=O)[O-])CC(=O)NC)CC(=O)[O-])CC(=O)[O-].[Gd+3]` [Omniscan], the mCherry in test [1] came to 117%. Besides, the percent effect in test [2] is -4.03%.
